# Taken from: PubChem BioAssay AID1224826 (NIAID, 2016)
# Screen: 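Knock-downs that raise or lower Tnf reporter signal after endotoxin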 (primary screen)
# Cells: RAW264.7 G9 macrophages from mouse bearing reporters for p65 (GFP) and the Tnf promoter (mCherry)
# Knock-down reagent: siRNA pool against mouse genes, 100 nM
# Time to read-out: 16 h of LPS stimulation, after 2 days of siRNA transfection
# Treatment: bacterial lipopolysaccharide (Salmonella minnesota R595), 10 ng/ml
# Read-out: 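Nuclear mCherry signal of the Tnf promoter reporter measured by imaging after background removal, scaled to each plate median and turned into robust z-scores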
# Direction: Tnf reporter robust z-score: higher = stronger Tnf promoter reporter signal after LPS; Tnf reporter intensity: higher = stronger Tnf promoter reporter signal
# Active means: 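Called active when robust z-score is at most -1.3, matching the median of the Tlr4 knock-down control, or over 3; control wells and wells with under 50 cells never active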
# Meaning of the calls: active = Tnf reporter clearly lowered or raised; inactive = no clear change in Tnf reporter
# The deposit covers about 17,000 reagents; below is a random part of them. Of all reagents, about 1,110 (6.6%) are marked active. 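Active means lowered or raised reporter signal; replicate intensities are raw and not normalised per plate.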 Entries without a mark were called inactive.
target gene,Tnf reporter robust z-score,fewer than 50 cells in well,"Tnf reporter intensity, replicate 1","Tnf reporter intensity, replicate 2"
Pars2,-2.03 (active),enough cells in well,58.8,72.1
Ifi35,-0.84,enough cells in well,181,126
Map3k11,,fewer than 50 cells per well; well left out of calls,108,136
Mak,,fewer than 50 cells per well; well left out of calls,166,119
Adam9,0.03,enough cells in well,245,120
Vmn1r189,0.71,enough cells in well,124,130
Tmem44,0.41,enough cells in well,237,181
Derl2,0.42,enough cells in well,247,223
Rlbp1,-1.48 (active),enough cells in well,138,94.2
Idh3g,-1.16,enough cells in well,126,74.1
Pak1,0.22,enough cells in well,195,177
Mrgprg,2.6,enough cells in well,331,251
Or2t46,-1.78 (active),enough cells in well,76.6,45.4
Rcn1,2.83,enough cells in well,298,201
Trex2,-0.25,enough cells in well,208,214
Bpifb2,1.95,enough cells in well,54.3,275
Itpk1,-0.69,enough cells in well,138,125
Mrtfa,-0.83,enough cells in well,194,145
Pign,-0.07,enough cells in well,182,93.4
Cypt1,-0.66,enough cells in well,163,61
Slc35d1,,fewer than 50 cells per well; well left out of calls,45.9,53.8
Wdfy3,1.56,enough cells in well,185,195
Banp,-0.41,enough cells in well,131,132
Or8g55,1,enough cells in well,175,200

Reagents listed so far called active:
target gene,Tnf reporter robust z-score,fewer than 50 cells in well,"Tnf reporter intensity, replicate 1","Tnf reporter intensity, replicate 2"
Pars2,-2.03 (active),enough cells in well,58.8,72.1
Rlbp1,-1.48 (active),enough cells in well,138,94.2
Or2t46,-1.78 (active),enough cells in well,76.6,45.4
